Reference: patent US5455161A, “Method for the monitoring of multiple anticancer drug resistance” (priority 1992, dated 1995)

Key:
[1] = target: T1, ornithine decarboxylase from AA8 cells (Cricetulus griseus, UniProt P14019); settings: read-out: apparent Michaelis constant of ornithine decarboxylase; enzyme from AA8 cells
T1 sequence (P14019 1-455): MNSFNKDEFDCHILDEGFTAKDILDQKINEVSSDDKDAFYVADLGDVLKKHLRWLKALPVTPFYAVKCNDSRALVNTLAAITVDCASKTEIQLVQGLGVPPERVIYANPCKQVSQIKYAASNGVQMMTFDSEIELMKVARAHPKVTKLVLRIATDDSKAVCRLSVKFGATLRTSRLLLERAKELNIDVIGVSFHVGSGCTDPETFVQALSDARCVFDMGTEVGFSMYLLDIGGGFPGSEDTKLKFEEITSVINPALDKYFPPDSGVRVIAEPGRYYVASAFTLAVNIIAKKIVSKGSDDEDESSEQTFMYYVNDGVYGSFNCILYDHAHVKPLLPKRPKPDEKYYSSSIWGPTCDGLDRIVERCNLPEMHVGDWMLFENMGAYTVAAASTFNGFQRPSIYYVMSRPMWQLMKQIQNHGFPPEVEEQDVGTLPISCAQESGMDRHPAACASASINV

[2] = tested on: ornithine decarboxylase from multidrug resistance T19 cells; settings: read-out: apparent Michaelis constant of ornithine decarboxylase; enzyme from T19 cells

## NCCC[C@H](N)C(=O)O [L-ornithine]
[1]
  Km: 48 µM
[2]
  Km: 46 µM
